Assay results published in PMC11094094.

Amino acid sequences for entries named in this document (tags omitted).
UniProt P29742: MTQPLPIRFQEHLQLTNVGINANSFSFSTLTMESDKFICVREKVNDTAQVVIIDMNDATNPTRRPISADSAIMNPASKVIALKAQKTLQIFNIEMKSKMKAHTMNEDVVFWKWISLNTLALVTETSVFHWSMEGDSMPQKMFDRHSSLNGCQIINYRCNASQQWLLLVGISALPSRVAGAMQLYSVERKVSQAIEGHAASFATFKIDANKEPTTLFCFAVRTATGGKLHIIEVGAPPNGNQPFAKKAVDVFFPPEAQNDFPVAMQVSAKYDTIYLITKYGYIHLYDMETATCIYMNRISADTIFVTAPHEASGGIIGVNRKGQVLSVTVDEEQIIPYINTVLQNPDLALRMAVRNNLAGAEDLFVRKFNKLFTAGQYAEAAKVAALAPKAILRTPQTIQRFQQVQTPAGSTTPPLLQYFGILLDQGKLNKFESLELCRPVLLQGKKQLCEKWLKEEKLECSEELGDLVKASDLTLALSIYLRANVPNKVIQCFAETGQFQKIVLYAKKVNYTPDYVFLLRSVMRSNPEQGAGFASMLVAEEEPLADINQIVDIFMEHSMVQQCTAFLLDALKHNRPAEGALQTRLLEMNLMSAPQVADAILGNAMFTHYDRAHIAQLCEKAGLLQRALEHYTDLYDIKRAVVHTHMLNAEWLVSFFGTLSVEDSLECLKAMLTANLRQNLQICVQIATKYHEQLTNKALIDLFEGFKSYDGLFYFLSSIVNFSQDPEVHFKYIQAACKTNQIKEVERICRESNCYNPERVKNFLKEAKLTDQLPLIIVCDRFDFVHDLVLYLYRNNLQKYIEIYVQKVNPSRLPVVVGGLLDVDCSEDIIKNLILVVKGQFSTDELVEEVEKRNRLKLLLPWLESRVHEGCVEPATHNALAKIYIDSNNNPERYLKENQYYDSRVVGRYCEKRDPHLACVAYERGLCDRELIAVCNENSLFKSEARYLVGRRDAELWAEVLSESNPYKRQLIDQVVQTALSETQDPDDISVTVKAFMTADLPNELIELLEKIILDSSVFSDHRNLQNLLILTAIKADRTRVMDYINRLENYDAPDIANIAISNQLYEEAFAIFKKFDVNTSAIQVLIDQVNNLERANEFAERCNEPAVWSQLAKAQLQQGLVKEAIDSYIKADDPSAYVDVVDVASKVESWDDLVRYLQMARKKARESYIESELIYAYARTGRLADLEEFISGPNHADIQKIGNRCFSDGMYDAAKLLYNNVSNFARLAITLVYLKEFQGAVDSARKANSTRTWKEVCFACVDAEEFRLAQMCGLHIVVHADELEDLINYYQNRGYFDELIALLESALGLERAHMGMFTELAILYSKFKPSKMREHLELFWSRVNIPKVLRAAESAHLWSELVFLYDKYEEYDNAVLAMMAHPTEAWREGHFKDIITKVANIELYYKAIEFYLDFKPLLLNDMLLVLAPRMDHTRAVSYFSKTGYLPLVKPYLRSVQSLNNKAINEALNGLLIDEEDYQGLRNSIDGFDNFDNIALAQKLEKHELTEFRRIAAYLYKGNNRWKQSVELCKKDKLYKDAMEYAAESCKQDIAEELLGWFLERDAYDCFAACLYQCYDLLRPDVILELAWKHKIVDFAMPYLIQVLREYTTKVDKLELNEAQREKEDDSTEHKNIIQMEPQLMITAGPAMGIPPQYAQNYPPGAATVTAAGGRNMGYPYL
UniProt P11147: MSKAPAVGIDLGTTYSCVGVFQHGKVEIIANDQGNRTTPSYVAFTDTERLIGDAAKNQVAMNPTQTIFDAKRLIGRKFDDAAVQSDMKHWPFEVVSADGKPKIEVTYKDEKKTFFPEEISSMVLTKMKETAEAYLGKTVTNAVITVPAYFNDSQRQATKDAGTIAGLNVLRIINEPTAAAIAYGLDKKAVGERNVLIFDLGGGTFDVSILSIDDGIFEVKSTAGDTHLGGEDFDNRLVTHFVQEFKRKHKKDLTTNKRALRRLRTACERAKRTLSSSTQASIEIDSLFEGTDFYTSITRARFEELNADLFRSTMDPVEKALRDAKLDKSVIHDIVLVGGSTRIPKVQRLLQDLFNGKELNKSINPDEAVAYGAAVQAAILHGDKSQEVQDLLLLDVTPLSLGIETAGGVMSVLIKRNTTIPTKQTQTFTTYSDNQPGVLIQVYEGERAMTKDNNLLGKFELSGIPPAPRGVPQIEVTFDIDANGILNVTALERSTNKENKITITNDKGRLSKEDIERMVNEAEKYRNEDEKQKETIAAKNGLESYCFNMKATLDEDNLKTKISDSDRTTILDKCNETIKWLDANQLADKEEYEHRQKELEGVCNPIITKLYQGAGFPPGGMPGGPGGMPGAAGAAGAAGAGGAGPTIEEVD

What was measured:
[1] = target: T1, Evi5 (Ecotropic viral integration site 5), 3xFlag-tagged, from the Evi5^FRT knock-in allele (Drosophila) (UniProt Q9VYY9); test: affinity purification with mass spectrometry; in vivo: whole Evi5^FRT L3 larvae (40-44 h), fixed with 0.2% formaldehyde, lysed; M2 Flag beads 4 h at 4 °C; eluate on SDS gel, MALDI-TOF; control wild-type flies without Flag-tagged protein; single sample
T1 sequence: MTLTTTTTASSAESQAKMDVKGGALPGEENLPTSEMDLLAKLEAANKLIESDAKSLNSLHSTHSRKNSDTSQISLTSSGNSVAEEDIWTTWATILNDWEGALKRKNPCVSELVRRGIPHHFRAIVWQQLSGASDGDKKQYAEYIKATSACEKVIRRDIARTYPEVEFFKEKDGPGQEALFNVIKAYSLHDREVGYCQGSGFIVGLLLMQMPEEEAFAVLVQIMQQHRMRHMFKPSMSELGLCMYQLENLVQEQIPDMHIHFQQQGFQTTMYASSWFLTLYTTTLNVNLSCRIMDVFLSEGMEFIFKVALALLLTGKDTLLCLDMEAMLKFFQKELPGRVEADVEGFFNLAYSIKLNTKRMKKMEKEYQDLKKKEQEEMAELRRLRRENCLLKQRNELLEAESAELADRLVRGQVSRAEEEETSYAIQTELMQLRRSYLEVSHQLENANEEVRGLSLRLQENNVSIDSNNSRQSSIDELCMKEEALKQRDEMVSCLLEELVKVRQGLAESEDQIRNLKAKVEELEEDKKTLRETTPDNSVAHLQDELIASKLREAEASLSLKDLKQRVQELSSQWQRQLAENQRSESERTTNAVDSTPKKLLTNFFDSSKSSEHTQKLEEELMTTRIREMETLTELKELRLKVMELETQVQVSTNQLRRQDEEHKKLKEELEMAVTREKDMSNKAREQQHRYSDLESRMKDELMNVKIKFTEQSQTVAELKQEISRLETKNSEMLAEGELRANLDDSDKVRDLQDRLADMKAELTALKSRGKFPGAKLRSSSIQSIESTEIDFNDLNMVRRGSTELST

[2] = target: T1, Evi5 (Ecotropic viral integration site 5), 3xFlag-tagged, from the Evi5^FRT knock-in allele (Drosophila); test: as above; remark: listed apart in the source
[3] = target: T2, Evi5-3xFlag expressed in S2 cells (pAFW-Evi5-3XFlag) (Drosophila) (UniProt Q9VYY9); test: affinity purification with mass spectrometry; ex vivo: S2 cells transfected with pAFW-Evi5-3XFlag, lysed (50 mM Tris-HCl pH 7.4, 150 mM NaCl, 1 mM EDTA, 0.1% NP-40); M2 Flag beads 4 h at 4 °C; MALDI-TOF; control Flag-tagged eGFP; single sample
T2 sequence: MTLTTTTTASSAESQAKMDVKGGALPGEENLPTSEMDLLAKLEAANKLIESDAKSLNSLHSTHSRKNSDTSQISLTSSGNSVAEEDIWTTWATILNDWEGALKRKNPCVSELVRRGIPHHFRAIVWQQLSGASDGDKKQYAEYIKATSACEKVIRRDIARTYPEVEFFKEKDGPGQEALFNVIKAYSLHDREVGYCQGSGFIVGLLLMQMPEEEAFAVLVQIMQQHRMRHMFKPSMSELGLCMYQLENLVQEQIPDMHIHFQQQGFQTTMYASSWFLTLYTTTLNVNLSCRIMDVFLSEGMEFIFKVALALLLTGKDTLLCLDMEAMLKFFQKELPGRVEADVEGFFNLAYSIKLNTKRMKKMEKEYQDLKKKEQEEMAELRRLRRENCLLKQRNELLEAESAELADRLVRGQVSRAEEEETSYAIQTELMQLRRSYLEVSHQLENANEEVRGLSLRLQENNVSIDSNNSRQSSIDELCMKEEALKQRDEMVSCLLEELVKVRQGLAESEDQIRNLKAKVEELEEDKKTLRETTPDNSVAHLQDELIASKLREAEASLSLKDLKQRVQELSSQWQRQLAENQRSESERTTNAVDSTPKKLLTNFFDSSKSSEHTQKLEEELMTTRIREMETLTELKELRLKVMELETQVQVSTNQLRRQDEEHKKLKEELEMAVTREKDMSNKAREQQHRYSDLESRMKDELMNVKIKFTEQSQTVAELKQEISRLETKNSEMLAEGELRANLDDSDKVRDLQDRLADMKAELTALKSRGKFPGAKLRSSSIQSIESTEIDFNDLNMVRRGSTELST

For “Clathrin heavy chain (Chc) (from UniProt P29742 1-1678)”, the binding [1] was “binds”.

In the case of “Hsc70-4 (endosomal co-chaperone) (from UniProt P11147 1-651)”, the binding [1] is reported as “binds”.

B1: Ferritin heavy chain (Fer1HCH), endogenous in larvae (protein, UniProt Q7KRU8 20-205)
chain: DFKCSLAVPEITKDWVDMKDACIKGMRNQIQEEINASYQYLAMGAYFSRDTVNRPGFAEHFFKAAKEEREHGSKLVEYLSMRGQLTEGVSDLINVPTVAKQEWTDGAAALSDALDLEIKVTKSIRKLIQTCENKPYNHYHLVDYLTGVYLEEQLHGQRELAGKLTTLKKMMDTNGELGEFLFDKTL
With B1 the binding [2] was “binds”.

B2: Ferritin heavy chain (Fer1HCH), endogenous in S2 cells (protein, UniProt Q7KRU8 20-205)
chain: DFKCSLAVPEITKDWVDMKDACIKGMRNQIQEEINASYQYLAMGAYFSRDTVNRPGFAEHFFKAAKEEREHGSKLVEYLSMRGQLTEGVSDLINVPTVAKQEWTDGAAALSDALDLEIKVTKSIRKLIQTCENKPYNHYHLVDYLTGVYLEEQLHGQRELAGKLTTLKKMMDTNGELGEFLFDKTL
In the case of B2, the binding [3] is reported as “binds”.

Like-named read-outs stand apart in the source and are kept apart here. These are yes or no findings as the source states them, for the method shown. In cells and extracts the contact can be indirect. These calls come from enrichment with a bait or labelling near it, and not all partners need be listed. Tags and fused reporters may be left off the sequences shown.
